Results deposited as PubChem BioAssay AID1224827 (NIAID, 2016).

- Aim: 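Retest primary hits on a TNF reporter with six siRNAs per gene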 (follow-up of hits)
- Cell system: RAW264.7 G9 mouse macrophage reporter clone
- Reagents: single siRNA against mouse genes, 100 nM siRNA
- Timing: siRNA for 2 days, then LPS about 16 h
- Challenge: bacterial lipopolysaccharide (LPS), 10 ng/ml, cells fixed after overnight (about 16 h) stimulation
- Measurement: 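Imaged nuclear TNF reporter intensity, background removed, scaled per plate and to non-targeting control wells, as z-scores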
- Scale: TNF reporter z-score, mean and TNF reporter z-score: higher = stronger Tnf promoter reporter signal; gene median z, three same-vendor siRNAs: higher = stronger Tnf reporter signal for the gene
- Call rule: 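Active siRNA: replicate-mean z-score of 2 or more, or -2 or less; no calls for control wells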
In all, the deposit lists about 3,800 reagents; this is an unselected part. About 2,200 of all reagents (57%) were called active. 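Active means a strong reporter change in either direction; calls are per siRNA, not per gene; qiagen siRNAs gave weaker effects.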 Entries without a mark were called inactive.

target gene	PubChem SID	TNF reporter z-score, mean	gene median z, three same-vendor siRNAs	TNF reporter z-score, repeat 1	TNF reporter z-score, repeat 2
Zp3r (zona pellucida 3 receptor)	SID315485130	0.162	-1.7	0.137	0.188
Zp3r (zona pellucida 3 receptor)	SID315485131	-1.7	-1.7	-2.35	-1.06
Zp3r (zona pellucida 3 receptor)	SID315485132	-4.6 (active)	-1.7	-5.49	-3.71
Zp3r (zona pellucida 3 receptor)	SID315485133	2.5 (active)	0.0864	3.85	1.15
Zp3r (zona pellucida 3 receptor)	SID315485134	-0.256	0.0864	0.815	-1.33
Zp3r (zona pellucida 3 receptor)	SID315485135	-1.42	0.0864	-0.642	-2.2
Sox11 (SRY (sex determining region Y)-box 11)	SID315484896	-1.8	-4.05	-1.9	-1.71
Sox11 (SRY (sex determining region Y)-box 11)	SID315484897	-4.24 (active)	-4.05	-3.8	-4.67
Sox11 (SRY (sex determining region Y)-box 11)	SID315484898	-4.79 (active)	-4.05	-5.28	-4.3
Sox11 (SRY (sex determining region Y)-box 11)	SID315484899	3.72 (active)	1.92	6.89	0.551
Sox11 (SRY (sex determining region Y)-box 11)	SID315484900	2.78 (active)	1.92	5.06	0.501
Sox11 (SRY (sex determining region Y)-box 11)	SID315484901	1.09	1.92	3.29	-1.11
Bpifb9a (BPI fold containing family B, member 9A)	SID315486624	-0.508	-1.49	0.503	-1.52
Bpifb9a (BPI fold containing family B, member 9A)	SID315486625	-1.51	-1.49	-1.26	-1.76
Bpifb9a (BPI fold containing family B, member 9A)	SID315486626	-1.97	-1.49	-2.49	-1.46

Already shown: entries from further up.
target gene	PubChem SID	TNF reporter z-score, mean	gene median z, three same-vendor siRNAs	TNF reporter z-score, repeat 1	TNF reporter z-score, repeat 2
Sox11 (SRY (sex determining region Y)-box 11)	SID315484898	-4.79 (active)	-4.05	-5.28	-4.3
Sox11 (SRY (sex determining region Y)-box 11)	SID315484899	3.72 (active)	1.92	6.89	0.551

The list goes on:
target gene	PubChem SID	TNF reporter z-score, mean	gene median z, three same-vendor siRNAs	TNF reporter z-score, repeat 1	TNF reporter z-score, repeat 2
Cog3 (component of oligomeric golgi complex 3)	SID315489039	-0.638	-2.68	-1.05	-0.231
Cog3 (component of oligomeric golgi complex 3)	SID315489040	-3.34 (active)	-2.68	-2.7	-3.98
Cog3 (component of oligomeric golgi complex 3)	SID315489041	-3.86 (active)	-2.68	-2.66	-5.07
Cog3 (component of oligomeric golgi complex 3)	SID315489042	1.59	0.205	3.18	0.000255
Cog3 (component of oligomeric golgi complex 3)	SID315489043	-0.122	0.205	0.453	-0.697
Cog3 (component of oligomeric golgi complex 3)	SID315489044	-1.24	0.205	0.409	-2.89
Tmem107 (transmembrane protein 107)	SID315486414	8.12 (active)	0.0599	7.12	9.11
Tmem107 (transmembrane protein 107)	SID315486415	0.0599	0.0599	0.335	-0.215
Tmem107 (transmembrane protein 107)	SID315486416	-3.72 (active)	0.0599	-4.06	-3.38
Tmem107 (transmembrane protein 107)	SID315486417	2.82 (active)	1.11	5.07	0.577
Tmem107 (transmembrane protein 107)	SID315486418	1.34	1.11	3.18	-0.508
Tmem107 (transmembrane protein 107)	SID315486419	0.851	1.11	1.64	0.0589
